For 1 substance, binding results are on record in doi:10.1101/637801.

The chains behind the UniProt entries cited, without tags or fusion partners. Residues count along the entry.
UniProt P04977, 35-221: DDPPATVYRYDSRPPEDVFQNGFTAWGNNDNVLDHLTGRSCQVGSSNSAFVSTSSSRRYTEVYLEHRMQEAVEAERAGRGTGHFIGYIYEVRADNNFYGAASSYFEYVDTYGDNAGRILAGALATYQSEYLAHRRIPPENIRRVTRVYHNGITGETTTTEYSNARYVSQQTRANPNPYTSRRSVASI

Results are given in words; binding and its absence hold for the method and conditions named.

The experiment addresses recombinant pertussis toxin S1 subunit (rPtxS1), N-terminally HIS-tagged, D35-I221 (Bordetella pertussis strain Tohama I) (UniProt P04977). The experiment can be described thus: SEC. A general note: SEC sorts molecules by how far they enter the pores of the column.

As for “recombinant pertussis toxin S1 subunit (rPtxS1), N-terminally HIS-tagged, D35-I221 (from UniProt P04977 35-221) (domain or fragment)”, the binding result is listed as “no binding (tested: 100 µg of rPtxS1)”.
